Results reported in paper PMC11334840.
Results are given in words; binding and its absence hold for the method and conditions named. For part of these data: Binding seen in cells or lysates may run through a third protein. Some results given as binding are weak or reduced against the parent protein; the word gives no strength. For part of these data: Where a sequence is shown, tags or fusion partners need not be part of it.

The chains behind the UniProt entries cited, without tags or fusion partners. Residues count along the entry.
UniProt P06241, residues 82-143: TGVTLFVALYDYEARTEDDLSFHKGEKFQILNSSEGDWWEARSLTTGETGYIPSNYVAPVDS
UniProt P07947: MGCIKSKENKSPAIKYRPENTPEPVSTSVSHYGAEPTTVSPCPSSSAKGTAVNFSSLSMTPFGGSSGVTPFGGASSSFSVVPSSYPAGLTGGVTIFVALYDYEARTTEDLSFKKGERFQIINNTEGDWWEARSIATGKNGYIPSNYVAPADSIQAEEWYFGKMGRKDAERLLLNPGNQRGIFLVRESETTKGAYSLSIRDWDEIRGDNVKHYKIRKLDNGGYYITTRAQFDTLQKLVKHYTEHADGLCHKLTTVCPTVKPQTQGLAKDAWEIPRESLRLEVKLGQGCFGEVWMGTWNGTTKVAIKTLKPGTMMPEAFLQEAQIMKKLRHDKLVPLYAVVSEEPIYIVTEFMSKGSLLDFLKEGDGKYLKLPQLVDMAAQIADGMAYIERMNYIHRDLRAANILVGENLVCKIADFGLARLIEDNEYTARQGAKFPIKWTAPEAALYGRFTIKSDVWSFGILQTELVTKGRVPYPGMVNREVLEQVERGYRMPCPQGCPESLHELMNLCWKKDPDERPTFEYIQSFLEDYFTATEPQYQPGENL

Experiments:
[1] = molecular target: epidermal growth factor receptor (human (endogenous in HEK293T)) (UniProt P00533); assay: co-IP; anti-EGFR immunoprecipitation from 1 mg HEK293T lysate, 2 h at room temperature; cells without FBS for 18 h, then 45 min with or without FBS; western blots for Src and Yes
[2] = molecular target: T1, GST fusion of the PLCγ1 SH3 domain (microarray spot) (UniProt P19174); assay: peptide or protein array; GST fusion SH3 domain proteins (about 250 ng) spotted in duplicate on nitrocellulose-coated slides; probed 1 h with biotinylated HER2 tail peptide bound to Cy3-streptavidin in PBST; two fluorescent spots count as binding; both purified
T1 sequence: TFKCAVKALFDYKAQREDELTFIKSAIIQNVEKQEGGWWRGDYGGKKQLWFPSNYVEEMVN

[3] = molecular target: GST fusion of the FYN SH3 domain (microarray spot) (UniProt P06241); assay: as above

Src family tyrosine kinase YES (from UniProt P07947 1-543)
binding [1]: binds

GGGGAAPQPHPPPAFSPAFDNL (biotinylated; bound to Cy3-streptavidin) [PRM-containing HER2 tail sequence probe peptide of the protein domain microarray]
binding [2]: binds
binding [3]: binds
